PubChem BioAssay AID1224830, NIAID, 2016

- Assay: 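Genes whose knock-down alters the TNF-alpha reporter response to LPS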 (primary screen)
- System: human THP-1 monocytic leukaemia cells, TNF dual-luciferase reporter clone, PMA-differentiated to macrophage-like cells
- Reagents: siRNA pool against human genes, 50 nM
- Duration: LPS for 4 h, given about 3 days after siRNA transfection
- Treatment: bacterial LPS (TLR4 ligand), 10 ng/ml
- Detection: 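TNF firefly reporter luminescence divided by renilla, normalised to the plate median, then turned into a robust z-score for each replicate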
- Reading the numbers: TNF reporter robust z-score: higher = stronger TNF reporter response to LPS
- Hit rule: 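a well is active when its z-score exceeds 2.8 or falls below -1.5; control wells carry no call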
Here is a random part of about 18,000 reagents tested. Of all reagents, about 2,900 (16%) got an active call. 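Calls are made per well; low scores hint the gene aids the LPS response, high scores that it dampens it.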 Repeated entries: four replicate wells of each siRNA pool. Reagent sequences are not shown.

no.	gene	TNF reporter robust z-score	Call
1	STKLD1 (GeneID 169436)	0.14	inactive
2	STKLD1 (GeneID 169436)	-0.98	inactive
3	STKLD1 (GeneID 169436)	1.14	inactive
4	STKLD1 (GeneID 169436)	0.61	inactive
5	CT47A1 (GeneID 728096)	0.42	inactive
6	CT47A1 (GeneID 728096)	3.57	active
7	CT47A1 (GeneID 728096)	5.18	active
8	CT47A1 (GeneID 728096)	3.88	active
9	CASP7 (GeneID 840)	-0.75	inactive
10	CASP7 (GeneID 840)	0.66	inactive
11	CASP7 (GeneID 840)	-0.8	inactive
12	CASP7 (GeneID 840)	-0.16	inactive
13	NRN1 (GeneID 51299)	-1.42	inactive
14	NRN1 (GeneID 51299)	-1.14	inactive
15	NRN1 (GeneID 51299)	0.33	inactive
16	NRN1 (GeneID 51299)	-1.54	active
17	OR6M1 (GeneID 390261)	-0.69	inactive
18	OR6M1 (GeneID 390261)	0.68	inactive
19	OR6M1 (GeneID 390261)	1.58	inactive
20	OR6M1 (GeneID 390261)	1.5	inactive
21	FAM199X (GeneID 139231)	-0.86	inactive
22	FAM199X (GeneID 139231)	-0.96	inactive
23	FAM199X (GeneID 139231)	-0.85	inactive
24	FAM199X (GeneID 139231)	-1.16	inactive
25	CARD18 (GeneID 59082)	-0.17	inactive
26	CARD18 (GeneID 59082)	1.6	inactive
27	CARD18 (GeneID 59082)	0.43	inactive
28	CARD18 (GeneID 59082)	0.45	inactive
29	CENPL (GeneID 91687)	0.14	inactive
30	CENPL (GeneID 91687)	-0.28	inactive
31	CENPL (GeneID 91687)	0.06	inactive
32	CENPL (GeneID 91687)	-0.51	inactive
33	TBC1D24 (GeneID 57465)	-0.79	inactive
34	TBC1D24 (GeneID 57465)	1.23	inactive
35	TBC1D24 (GeneID 57465)	0.29	inactive
36	TBC1D24 (GeneID 57465)	-0.72	inactive
37	SOX12 (GeneID 6666)	0.53	inactive
38	SOX12 (GeneID 6666)	-0.25	inactive
39	SOX12 (GeneID 6666)	-0.31	inactive
40	SOX12 (GeneID 6666)	-0.59	inactive
41	JAKMIP2 (GeneID 9832)	-0.52	inactive
42	JAKMIP2 (GeneID 9832)	-1.14	inactive
43	JAKMIP2 (GeneID 9832)	-0.27	inactive
44	JAKMIP2 (GeneID 9832)	-0.18	inactive

Called active, of those listed so far:
gene	TNF reporter robust z-score	Call
CT47A1 (GeneID 728096)	3.57	active
CT47A1 (GeneID 728096)	5.18	active
CT47A1 (GeneID 728096)	3.88	active
NRN1 (GeneID 51299)	-1.54	active

The list goes on.
no.	gene	TNF reporter robust z-score	Call
45	UNC45B (GeneID 146862)	0.44	inactive
46	UNC45B (GeneID 146862)	0.14	inactive
47	UNC45B (GeneID 146862)	-1.12	inactive
48	UNC45B (GeneID 146862)	0.15	inactive
49	MAP2K2 (GeneID 5605)	2.66	inactive
50	MAP2K2 (GeneID 5605)	2.68	inactive
51	MAP2K2 (GeneID 5605)	2.58	inactive
52	MAP2K2 (GeneID 5605)	5	active
53	MYH6 (GeneID 4624)	-1.01	inactive
54	MYH6 (GeneID 4624)	-0.83	inactive
55	MYH6 (GeneID 4624)	-0.78	inactive
56	MYH6 (GeneID 4624)	-0.46	inactive
57	OR4F21 (GeneID 441308)	-0.42	inactive
58	OR4F21 (GeneID 441308)	-0.01	inactive
59	OR4F21 (GeneID 441308)	-0.47	inactive
60	OR4F21 (GeneID 441308)	0.17	inactive
61	WDR24 (GeneID 84219)	2.2	inactive
62	WDR24 (GeneID 84219)	3.5	active
63	WDR24 (GeneID 84219)	0.94	inactive
64	WDR24 (GeneID 84219)	1.49	inactive
65	PGAP2 (GeneID 27315)	0.38	inactive
66	PGAP2 (GeneID 27315)	-0.61	inactive
67	PGAP2 (GeneID 27315)	0.15	inactive
68	PGAP2 (GeneID 27315)	0.37	inactive
69	OR11H6 (GeneID 122748)	-0.04	inactive
70	OR11H6 (GeneID 122748)	-0.49	inactive
71	OR11H6 (GeneID 122748)	-0.39	inactive
72	OR11H6 (GeneID 122748)	-0.01	inactive
73	COPB1 (GeneID 1315)	-1.76	active
74	COPB1 (GeneID 1315)	-1.88	active
75	COPB1 (GeneID 1315)	-2.06	active
76	COPB1 (GeneID 1315)	-2.04	active
